# Measured values published in PubChem BioAssay (NCATS).
# Amino acid sequences for entries named in this document (tags omitted). A change or cut given only in a name is not applied to a line headed by its entry.
# UniProt P11712, whole entry, looked up: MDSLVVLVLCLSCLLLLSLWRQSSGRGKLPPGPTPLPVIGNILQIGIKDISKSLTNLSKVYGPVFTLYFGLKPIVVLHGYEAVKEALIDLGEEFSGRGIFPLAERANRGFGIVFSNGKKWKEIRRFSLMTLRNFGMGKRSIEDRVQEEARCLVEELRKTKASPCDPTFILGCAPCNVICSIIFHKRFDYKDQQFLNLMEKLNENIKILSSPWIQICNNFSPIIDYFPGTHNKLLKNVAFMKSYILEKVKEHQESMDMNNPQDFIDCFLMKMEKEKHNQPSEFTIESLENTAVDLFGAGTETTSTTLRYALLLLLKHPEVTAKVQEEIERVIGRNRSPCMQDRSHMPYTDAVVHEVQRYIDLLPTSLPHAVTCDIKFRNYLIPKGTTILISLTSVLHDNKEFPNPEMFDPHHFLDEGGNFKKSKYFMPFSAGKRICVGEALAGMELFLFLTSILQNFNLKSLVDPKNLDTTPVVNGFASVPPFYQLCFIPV
# UniProt P33261, whole entry, looked up: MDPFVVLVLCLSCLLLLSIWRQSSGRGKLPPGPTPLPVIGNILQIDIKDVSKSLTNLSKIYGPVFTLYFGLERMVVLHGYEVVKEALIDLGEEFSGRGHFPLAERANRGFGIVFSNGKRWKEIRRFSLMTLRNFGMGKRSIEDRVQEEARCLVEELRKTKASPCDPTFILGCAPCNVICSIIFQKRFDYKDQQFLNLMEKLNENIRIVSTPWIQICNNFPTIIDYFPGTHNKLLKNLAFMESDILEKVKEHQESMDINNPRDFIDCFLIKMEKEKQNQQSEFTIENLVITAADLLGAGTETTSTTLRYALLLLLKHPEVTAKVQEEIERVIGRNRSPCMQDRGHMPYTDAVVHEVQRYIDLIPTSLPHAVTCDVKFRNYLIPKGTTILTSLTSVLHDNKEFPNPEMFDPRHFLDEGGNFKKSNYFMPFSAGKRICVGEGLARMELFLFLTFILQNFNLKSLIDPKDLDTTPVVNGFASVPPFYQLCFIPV
# UniProt P10635, whole entry, looked up: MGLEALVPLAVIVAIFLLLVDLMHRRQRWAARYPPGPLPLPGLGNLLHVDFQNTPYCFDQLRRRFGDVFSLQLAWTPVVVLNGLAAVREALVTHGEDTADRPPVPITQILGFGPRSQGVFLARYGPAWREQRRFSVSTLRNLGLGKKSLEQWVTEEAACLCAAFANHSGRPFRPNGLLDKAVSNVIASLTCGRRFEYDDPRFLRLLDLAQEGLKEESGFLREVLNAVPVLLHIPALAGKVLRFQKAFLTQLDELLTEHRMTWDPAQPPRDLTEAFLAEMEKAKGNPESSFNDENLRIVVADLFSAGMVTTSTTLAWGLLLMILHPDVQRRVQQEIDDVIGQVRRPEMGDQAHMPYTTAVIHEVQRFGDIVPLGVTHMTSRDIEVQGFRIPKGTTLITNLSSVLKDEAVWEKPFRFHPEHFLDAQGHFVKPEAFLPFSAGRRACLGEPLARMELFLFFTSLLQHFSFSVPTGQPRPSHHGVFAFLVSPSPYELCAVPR
# UniProt O75469: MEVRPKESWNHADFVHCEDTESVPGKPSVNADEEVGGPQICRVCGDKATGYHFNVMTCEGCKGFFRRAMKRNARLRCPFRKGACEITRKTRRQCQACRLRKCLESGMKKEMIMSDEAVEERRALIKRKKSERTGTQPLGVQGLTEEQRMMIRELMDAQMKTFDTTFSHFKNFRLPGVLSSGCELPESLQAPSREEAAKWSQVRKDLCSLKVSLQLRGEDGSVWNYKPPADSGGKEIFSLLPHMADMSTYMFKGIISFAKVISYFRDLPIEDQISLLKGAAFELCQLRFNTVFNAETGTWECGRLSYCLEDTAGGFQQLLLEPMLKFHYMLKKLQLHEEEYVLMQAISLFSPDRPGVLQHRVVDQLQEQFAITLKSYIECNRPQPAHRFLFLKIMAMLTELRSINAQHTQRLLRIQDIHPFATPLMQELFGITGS
# UniProt P19793: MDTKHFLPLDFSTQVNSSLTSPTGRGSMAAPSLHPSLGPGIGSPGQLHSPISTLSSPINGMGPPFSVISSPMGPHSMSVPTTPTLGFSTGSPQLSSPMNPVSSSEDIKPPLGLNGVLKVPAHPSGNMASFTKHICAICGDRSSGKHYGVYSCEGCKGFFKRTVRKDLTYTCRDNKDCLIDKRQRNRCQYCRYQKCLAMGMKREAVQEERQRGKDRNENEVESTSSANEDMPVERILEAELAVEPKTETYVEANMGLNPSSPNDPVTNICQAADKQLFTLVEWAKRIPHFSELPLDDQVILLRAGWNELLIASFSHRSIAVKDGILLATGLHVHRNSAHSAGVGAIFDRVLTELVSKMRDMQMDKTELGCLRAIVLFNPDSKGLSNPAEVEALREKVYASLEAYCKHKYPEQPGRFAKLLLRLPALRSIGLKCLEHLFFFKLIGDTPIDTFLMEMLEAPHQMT
# UniProt P10828: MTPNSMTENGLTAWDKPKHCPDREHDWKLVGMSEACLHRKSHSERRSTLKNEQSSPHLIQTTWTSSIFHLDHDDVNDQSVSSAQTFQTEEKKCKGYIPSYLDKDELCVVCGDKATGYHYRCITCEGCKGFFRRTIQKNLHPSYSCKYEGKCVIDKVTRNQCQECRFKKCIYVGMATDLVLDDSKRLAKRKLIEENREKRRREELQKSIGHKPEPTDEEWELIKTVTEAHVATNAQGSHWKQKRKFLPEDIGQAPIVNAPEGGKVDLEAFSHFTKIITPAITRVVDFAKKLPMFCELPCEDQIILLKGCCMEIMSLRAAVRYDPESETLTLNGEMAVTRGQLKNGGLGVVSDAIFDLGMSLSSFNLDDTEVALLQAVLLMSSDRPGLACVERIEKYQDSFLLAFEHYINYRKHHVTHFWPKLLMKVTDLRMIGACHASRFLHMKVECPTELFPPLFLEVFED
# UniProt P05177, whole entry, looked up: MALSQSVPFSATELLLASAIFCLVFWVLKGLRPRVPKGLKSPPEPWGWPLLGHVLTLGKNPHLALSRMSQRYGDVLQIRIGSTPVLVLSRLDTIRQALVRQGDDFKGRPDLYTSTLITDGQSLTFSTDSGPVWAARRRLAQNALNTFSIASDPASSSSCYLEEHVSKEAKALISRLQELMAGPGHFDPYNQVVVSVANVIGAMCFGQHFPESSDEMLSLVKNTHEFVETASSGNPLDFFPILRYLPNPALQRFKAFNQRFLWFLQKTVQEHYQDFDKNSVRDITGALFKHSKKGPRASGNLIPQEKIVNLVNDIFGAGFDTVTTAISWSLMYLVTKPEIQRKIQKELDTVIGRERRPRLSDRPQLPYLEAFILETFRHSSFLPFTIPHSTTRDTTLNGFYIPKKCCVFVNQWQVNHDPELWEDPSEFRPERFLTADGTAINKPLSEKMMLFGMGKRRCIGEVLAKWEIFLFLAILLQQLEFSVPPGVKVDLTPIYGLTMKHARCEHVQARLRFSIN
# Inconclusive means that the source gave no clear call. Such entries were picked first, then a sample of the others. For part of these data: A potency beside an inconclusive call is a rough fit, not a confirmed value. For part of these data: A note “side channel” means that the fit belongs to a control or component signal, not to the main read-out. Calls of active or inactive are those of the source. Unless noted, the call rests on the fitted dose curve; in most records, active means well fitted curve in the direction sought with a large enough effect; inconclusive means small, poorly fitted or top-dose-only effect, or another doubt; inactive means no such curve, though single readings can be large; an effect the other way counts as inactive or inconclusive.
# Columns and labels:
# [1] = target: Cytochrome P450 2C9 (Homo sapiens) (UniProt P11712); experiment: qHTS for inhibitors of CYP2C9 against the NCATS DSHEA and TCM libraries (AID 1919973); further: potency means the concentration at half of the fitted maximal effect;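 on activity change, negative = inhibition: luminogenic pro-luciferin CYP2C9 substrate turned into luciferin with NADPH regeneration; on the % scale 0 is the no-effect control and ±100 the full control effect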
# How it was run: (§1)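 Concentration-response screening with isoform-matched pro-luciferin substrates. The CYP reaction was initiated by NADPH regenerating solution and ran 30-45 min in darkness at room temperature.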
# [2] = target: Cytochrome P450 2C19 (Homo sapiens) (UniProt P33261); experiment: qHTS for inhibitors of CYP2C19 against the NCATS DSHEA and TCM libraries (AID 1919974);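 further: luminescence from luciferin released by CYP2C19 oxidation of a pro-luciferin substrate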; further: potency means the concentration at half of the fitted maximal effect; on activity change, negative = inhibition: on the % scale 0 is the no-effect control and ±100 the full control effect
# How it was run: as §1
# [3] = target: Cytochrome P450 2D6 (Homo sapiens) (UniProt P10635); experiment: qHTS for inhibitors of CYP2D6 against the NCATS DSHEA and TCM libraries (AID 1919972); further: on the % scale 0 is the no-effect control and ±100 the full control effect
# How it was run: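 CYP2D6 enzyme with pro-luciferin substrate in manufacturer buffer (typically 100 mM KPO4), preincubated 15 min RT with substances (most at 19.5 nM upward); NADPH regeneration system (1x) started 30–45 min RT reaction; P450-Glo luminescence read after 30 min; quinidine as intraplate control.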
# [4] = target: Nuclear receptor subfamily 1 group I member 2 (Homo sapiens) (UniProt O75469); experiment: Dual reporter qHTS for agonist of Pregnane X Receptor (hPXR) against the NCATS DSHEA and TCM libraries: Luminescence readout (AID 1920059); further: 0% is about no effect
# How it was run: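 Luminescent PXR reporter read (ONE-Glo) after a CellTiter-Fluor viability read, following 24 h, 37C treatment of HepG2 cells stably carrying hPXR-Luc.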
# [5] = Dual reporter qHTS for antagonist of Pregnane X Receptor (hPXR) against the NCATS DSHEA and TCM libraries: Fluorescence Readout (AID 1920061); further: 0% is about no effect
# How it was run: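 Rifampicin-stimulated (2 uM final) hPXR-luciferase HepG2 cells were treated for 24 h with DSNP/TCM substances. Viability came from CellTiter-Fluor fluorescence, reporter activity from ONE-Glo luminescence.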
# [6] = target: Mitogen-activated protein kinase 10 (Mus musculus) (UniProt Q61831); experiment: JNK3 AlphaScreen Assay (AID 530; active means well fitted curve in either direction with a large enough effect, not every such curve was filed as active; inconclusive means small, poorly fitted or top-dose-only effect, or another doubt;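 further: kinase came from lysate of stimulated human HepG2 cells; potency means the concentration at half of the fitted maximal effect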); settings: JNK3 lysate, c-Jun phosphorylation; activity change, negative = inhibition: at 57.1 µM (top of the series)
# How it was run: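 qHTS titrations with 15 min compound pre-incubation before adding ATP (10 uM final). Read-out: AlphaScreen of Ser73-phosphorylated biotin-GST-cJun using HepG2 lysate JNK3 activated by IL-1β and TNFα.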
# [7] = Cellular Toxicity (caspase-3) H-4-II-E (AID 663); settings: H-4-II-E rat hepatoma; Potency: caspase-3 activation; caspase-3 activation: at 92.2 µM (top of the series), scaled: DMSO 0%, 100 µM tamoxifen 100%;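 further: cells exposed to compound for 16 hr before readout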
# How it was run: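 Caspase 3/7 activation measured by luminescent aminoluciferin substrate cleavage after 16 hr compound treatment of H-4-II-E cells in complete medium. Increase normalized between DMSO (basal) and 100 uM tamoxifen (100%); Hill-equation AC50 from concentration-response.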
# [8] = MultiTox-Fluor Cytotoxicity Assay - LYMP1-003 - Live Cells (AID 962);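 further: cells exposed to compound for 16 hours at 37 °C; 0% = DMSO only and full loss = 92 µM tetraoctylammonium bromide; cytotoxic hits lower the live-cell protease signal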
# How it was run: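 Acute cytotoxicity is scored as a drop in live-cell protease activity in human lymphoblastoid LYMP1-003 cells after 16 hr compound exposure at 37 C. AC50 values come from Hill-equation modelling of concentration-response data.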
# [9] = Cell Viability - LYMP2-004 (AID 966);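 further: cells exposed to compound for 24 h; plate controls were DMSO only for no effect and tetraoctylammonium bromide control for full effect; nearly all actives have a fitted effect of over 65% in size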
# How it was run: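 qHTS cytotoxicity: human lymphoblastoid line, 24 hr compound treatment, 37 C, complete medium. Viability read as cellular ATP via luciferase luminescence; tetraoctylammonium bromide served as positive control.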
# [10] = Cell Viability - LYMP2-006 (AID 978);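 further: cells exposed to compound for 24 hours; on the % scale 0 is the no-effect control and ±100 the full control effect; nearly all actives have a fitted effect of over 60% in size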
# How it was run: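 In this cytotoxicity screen, the human lymphoblastoid line grew in complete medium with test compounds for 24 hr at 37 C. Cellular ATP served as the viability signal.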
# [11] = Cell Viability - LYMP2-022 (AID 987);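 further: 0% = DMSO alone and full effect = tetraoctylammonium bromide at 92 µM; nearly all actives have a fitted effect of over 55% in size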
# How it was run: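 Cells were seeded at 2500 per well, rested 5 hr at 37 C, and treated with titrated compounds for 24 hr at 37 C. Cellular ATP was then quantified by luciferase luminescence, and AC50 values were derived from Hill-modelled concentration-response curves.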
# [12] = target: Peroxisome proliferator-activated receptor gamma (Homo sapiens) (UniProt P37231); experiment: qHTS assay for small molecule agonists of peroxisome proliferator-activated receptor gamma signaling (AID 588536; active means well fitted curve in the direction sought with a large enough effect in the signal ratio, with a control signal flat, not every such curve was filed as active; inconclusive means small, poorly fitted or top-dose-only effect, or effect the other way, or a change in a side signal; inactive means no such curve, though single readings can be large or run the other way; the % refers to the signal ratio;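 further: 0% = DMSO basal wells and 100% = rosiglitazone at 2 µM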); settings: HEK293 PPARg-UAS-bla, beta-lactamase ratio, 16 h; activation: at 76.7 µM (top of the series), percent of rosiglitazone response, DMSO as zero
# How it was run: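 Using GeneBLAzer HEK293 cells, response was quantified by CCF4 fluorescence and normalized between basal DMSO (0%) and rosiglitazone 2 uM (100%); curves yielded half-maximal stimulation concentration and efficacy.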
# [13] = target: Peroxisome proliferator-activated receptor gamma (Homo sapiens) (UniProt P37231); experiment: qHTS assay for small molecule antagonists of peroxisome proliferator-activated receptor gamma signaling (AID 588537; active means well fitted inhibition curve with a large enough effect in the signal ratio, with a control signal flat, not every such curve was filed as active; inconclusive means small, poorly fitted or top-dose-only effect, or effect the other way, or a change in a side signal; the % refers to the signal ratio; further: potency means the concentration at half of the fitted maximal effect); settings: HEK293 PPARg-UAS-bla, beta-lactamase ratio, antagonist mode; activity, negative = inhibition: at 76.8 µM (top of the series)
# How it was run: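 Antagonist-mode β-lactamase reporter screen run as a titration series. HEK293 PPARγ-UAS-bla cells are stimulated with rosiglitazone (50 nM final) for 16 h, then CCF4 is read at 460/530 nm. Data are scaled between DMSO and rosiglitazone and fitted to the Hill equation.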
# [14] = target: Retinoic acid receptor RXR-alpha (Homo sapiens) (UniProt P19793); experiment: qHTS assay for small molecule agonists of retinoid X receptor alpha signaling (AID 588544; calls by dose curve; further: potency means the concentration at half of the fitted maximal effect;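 on activation: 0% = DMSO basal wells and 100% = reference agonist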); settings: HEK293T RXRa-UAS-bla, beta-lactamase reporter, 18 h; activation: at 76.7 µM (top of the series) unless noted
# [15] = target: Thyroid hormone receptor beta (Homo sapiens) (UniProt P10828); experiment: qHTS assay for small molecule agonists of thyroid hormone receptor beta signaling (AID 588545; calls by dose curve; further: potency means the concentration at half of the fitted maximal effect); settings: TR-UAS-bla GripTite HEK 293, beta-lactamase ratio, agonist mode, 18 h; activation: at 76.7 µM, percent of T3 response, DMSO as zero
# How it was run: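 Agonist activity was read as beta-lactamase CCF4 fluorescence (405 ex, 460/530 em), scaled between DMSO (0%) and 10 nM T3 (100%), then Hill-fitted for EC50 and efficacy. HEK 293 TR-UAS-bla cells in 2% charcoal/dextran FBS medium were exposed 18 h at 37 C.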
# [16] = target: Thyroid hormone receptor beta (Homo sapiens) (UniProt P10828); experiment: qHTS assay for small molecule antagonists of thyroid hormone receptor beta signaling (AID 588547; active means well fitted inhibition curve with a large enough effect in the signal ratio, with a control signal flat, not every such curve was filed as active; inconclusive means small, poorly fitted or top-dose-only effect, or effect the other way, or a change in a side signal; the % refers to the signal ratio; further: potency means the concentration at half of the fitted maximal effect;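 on activity change % (negative = inhibition): cells stimulated with 0.4 nM T3 agonist during compound exposure; on the % scale 0 is the no-effect control and ±100 the full control effect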); settings: TR-UAS-bla HEK293, beta-lactamase ratio, antagonist mode, 18 h
# How it was run: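 Inhibition of T3-driven (0.4nM final) beta-lactamase reporter activity was measured over 0.59 nM to 92 uM compound after 18 h at 37 C. The cells were GripTite HEK293 TR-UAS-bla in charcoal/dextran-stripped serum, with CCF4 ratio read-out and IC50 from Hill fits.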
# [17] = qHTS assay to identify small molecules that stimulate interleukin-8 (IL-8) secretion (AID 651758; active means well fitted activation curve with a large enough effect in the signal ratio; inconclusive means small, poorly fitted or top-dose-only effect, or effect the other way, or a change in a side signal; the % refers to the signal ratio; further: potency means the concentration at half of the fitted maximal effect; on activation: 0% is about no effect); settings: HTRF ratio (665/615); activation: at 92.2 µM (top of the series)
# How it was run: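 Secreted IL-8 measured homogeneously by TR-FRET (two labelled anti-IL-8 antibodies, 1-3 h at room temperature) after a 16 h, 37 C compound treatment of THP-1 cells at 2000 cells/well.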
# [18] = qHTS assay for small molecule agonists of the antioxidant response element (ARE) signaling pathway measured by Nrf2-dependant transcriptional activity (AID 720636; active means well fitted curve in the direction sought with a large enough effect in the repeat runs; inconclusive means weak or mixed curves; inactive means no such curve, though single readings can be large; an effect the other way counts as inactive or inconclusive; further: % of control where 0% means no effect)
# How it was run: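 ONE-Glo luminescence, read 30 min after reagent addition at room temperature, reflected ARE reporter activity in HepG2 cells that had been incubated with compound for 16 hr at 37 C in 1% dialyzed FBS.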
# [19] = target: Cytochrome P450 1A2 (Homo sapiens) (UniProt P05177); experiment: qHTS for inhibitors of CYPIA2 against the NCATS DSHEA and TCM libraries (AID 1919976); further: potency means the concentration at half of the fitted maximal effect
# How it was run: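 Enzyme and pro-luciferin substrate, or substrate alone as no-enzyme background, are pre-incubated with test samples for 15 min at room temperature. NADPH regeneration system (1x final) initiates a 30-45 min dark reaction; luciferase detection reagent follows before luminescence reading.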
structure (smiles),measurement,setting,value
OCC1=C[C@@H](O)[C@@H]2C=CO[C@@H](OC3O[C@H](CO)[C@@H](O)[C@H](O)[C@H]3O)[C@H]12 (some centres undefined),Potency,[1],inactive
same,Potency,[2],inactive
CC1(C)CC[C@]2(C(=O)O)CC[C@]3(C)C(=CCC4[C@@]5(C)CC[C@@H](O)C(C)(C)C5CC[C@]43C)C2C1 (some centres undefined),Potency,[3],inactive
same,Potency,[4],inactive
same,Potency,[5],inactive
CCCCCCCCCCCC(=O)O,Potency,[6],"inconclusive: 0.000501 µM [activator, full curve, poor fit]"
same,caspase-3 activation,[7],inconclusive: 0.737%
same,Potency,[8],inactive
same,Potency,[9],inactive
same,Potency,[10],inactive
same,Potency,[11],inactive
same,activation,[12],inconclusive: 14.6%
same,Potency,[13],"inconclusive: 31.6 µM [fluorescent, side channel, single point]"
same,Potency,[14],"inconclusive: 3.16 µM [fluorescent, side channel, full curve, poor fit]"
same,activation,[14],inconclusive: 14.7%
same,Potency,[15],"inconclusive: 35.5 µM [inhibitor, partial curve, poor fit]"
same,Potency,[16],"inconclusive: 28.2 µM [fluorescent, side channel, full curve, poor fit]"
same,activity change % (negative = inhibition),[16],inconclusive: 0.946%
same,Potency,[17],"inconclusive: 75 µM [activator, partial curve, poor fit]"
same,activation,[17],inconclusive: -21.1%
same,Potency,[18],inactive
same,Potency,[1],"inconclusive: 25.1 µM [inhibitor, partial curve]"
same,Potency,[2],"inconclusive: 25.1 µM [inhibitor, partial curve]"
same,Potency,[19],"inconclusive: 25.1 µM [inhibitor, partial curve]"

# Given as tab-separated lines: entries from further up.
structure (smiles)	measurement	setting	value
CC1(C)CC[C@]2(C(=O)O)CC[C@]3(C)C(=CCC4[C@@]5(C)CC[C@@H](O)C(C)(C)C5CC[C@]43C)C2C1 (some centres undefined)	Potency	[3]	inactive
same	Potency	[4]	inactive
